For assay [1], the target named is Integrin alpha6/beta4 (human) (UniProt P23229+P16144). As to the kind of experiment: IP/MS.
Assay [2] addresses CD55 (human) (UniProt P08174). As to the kind of experiment: Western blot antigen signature; IP/MS. (In general: Immunoblotting shows a protein as a band on a membrane.)

Chains of the proteins cited; added tags and fusions are not shown. Lines headed by an entry give the natural chain unless they say otherwise; changes in a name come on top. Residues count along the entry.
UniProt P23229: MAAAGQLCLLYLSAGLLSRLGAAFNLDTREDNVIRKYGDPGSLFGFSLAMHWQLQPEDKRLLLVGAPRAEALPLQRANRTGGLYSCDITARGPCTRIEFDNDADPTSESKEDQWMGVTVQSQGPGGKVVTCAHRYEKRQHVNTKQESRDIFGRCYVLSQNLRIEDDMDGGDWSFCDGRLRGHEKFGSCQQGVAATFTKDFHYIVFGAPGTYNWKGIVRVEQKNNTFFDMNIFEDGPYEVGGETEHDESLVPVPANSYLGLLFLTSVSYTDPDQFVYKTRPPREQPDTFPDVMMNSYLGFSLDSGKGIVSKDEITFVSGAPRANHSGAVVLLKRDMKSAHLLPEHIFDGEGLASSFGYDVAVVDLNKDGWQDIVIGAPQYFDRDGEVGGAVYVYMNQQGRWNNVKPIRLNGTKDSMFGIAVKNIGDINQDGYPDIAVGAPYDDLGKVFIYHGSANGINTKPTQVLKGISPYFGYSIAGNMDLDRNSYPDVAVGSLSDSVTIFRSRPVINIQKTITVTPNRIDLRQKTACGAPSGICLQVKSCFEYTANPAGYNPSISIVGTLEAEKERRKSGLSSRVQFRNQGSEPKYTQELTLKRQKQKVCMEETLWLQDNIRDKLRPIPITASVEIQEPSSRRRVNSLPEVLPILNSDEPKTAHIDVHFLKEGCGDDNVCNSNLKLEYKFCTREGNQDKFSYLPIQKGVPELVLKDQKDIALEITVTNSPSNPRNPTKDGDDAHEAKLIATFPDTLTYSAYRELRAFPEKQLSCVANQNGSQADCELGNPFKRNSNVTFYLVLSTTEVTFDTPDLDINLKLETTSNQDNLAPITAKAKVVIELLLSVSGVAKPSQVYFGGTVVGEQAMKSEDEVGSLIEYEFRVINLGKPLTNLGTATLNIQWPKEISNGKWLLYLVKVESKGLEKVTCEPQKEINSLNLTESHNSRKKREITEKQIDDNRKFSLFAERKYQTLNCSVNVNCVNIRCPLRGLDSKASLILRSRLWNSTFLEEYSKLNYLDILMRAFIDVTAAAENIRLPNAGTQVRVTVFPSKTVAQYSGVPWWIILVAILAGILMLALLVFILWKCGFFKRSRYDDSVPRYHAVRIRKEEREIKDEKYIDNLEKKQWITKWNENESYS
UniProt P16144: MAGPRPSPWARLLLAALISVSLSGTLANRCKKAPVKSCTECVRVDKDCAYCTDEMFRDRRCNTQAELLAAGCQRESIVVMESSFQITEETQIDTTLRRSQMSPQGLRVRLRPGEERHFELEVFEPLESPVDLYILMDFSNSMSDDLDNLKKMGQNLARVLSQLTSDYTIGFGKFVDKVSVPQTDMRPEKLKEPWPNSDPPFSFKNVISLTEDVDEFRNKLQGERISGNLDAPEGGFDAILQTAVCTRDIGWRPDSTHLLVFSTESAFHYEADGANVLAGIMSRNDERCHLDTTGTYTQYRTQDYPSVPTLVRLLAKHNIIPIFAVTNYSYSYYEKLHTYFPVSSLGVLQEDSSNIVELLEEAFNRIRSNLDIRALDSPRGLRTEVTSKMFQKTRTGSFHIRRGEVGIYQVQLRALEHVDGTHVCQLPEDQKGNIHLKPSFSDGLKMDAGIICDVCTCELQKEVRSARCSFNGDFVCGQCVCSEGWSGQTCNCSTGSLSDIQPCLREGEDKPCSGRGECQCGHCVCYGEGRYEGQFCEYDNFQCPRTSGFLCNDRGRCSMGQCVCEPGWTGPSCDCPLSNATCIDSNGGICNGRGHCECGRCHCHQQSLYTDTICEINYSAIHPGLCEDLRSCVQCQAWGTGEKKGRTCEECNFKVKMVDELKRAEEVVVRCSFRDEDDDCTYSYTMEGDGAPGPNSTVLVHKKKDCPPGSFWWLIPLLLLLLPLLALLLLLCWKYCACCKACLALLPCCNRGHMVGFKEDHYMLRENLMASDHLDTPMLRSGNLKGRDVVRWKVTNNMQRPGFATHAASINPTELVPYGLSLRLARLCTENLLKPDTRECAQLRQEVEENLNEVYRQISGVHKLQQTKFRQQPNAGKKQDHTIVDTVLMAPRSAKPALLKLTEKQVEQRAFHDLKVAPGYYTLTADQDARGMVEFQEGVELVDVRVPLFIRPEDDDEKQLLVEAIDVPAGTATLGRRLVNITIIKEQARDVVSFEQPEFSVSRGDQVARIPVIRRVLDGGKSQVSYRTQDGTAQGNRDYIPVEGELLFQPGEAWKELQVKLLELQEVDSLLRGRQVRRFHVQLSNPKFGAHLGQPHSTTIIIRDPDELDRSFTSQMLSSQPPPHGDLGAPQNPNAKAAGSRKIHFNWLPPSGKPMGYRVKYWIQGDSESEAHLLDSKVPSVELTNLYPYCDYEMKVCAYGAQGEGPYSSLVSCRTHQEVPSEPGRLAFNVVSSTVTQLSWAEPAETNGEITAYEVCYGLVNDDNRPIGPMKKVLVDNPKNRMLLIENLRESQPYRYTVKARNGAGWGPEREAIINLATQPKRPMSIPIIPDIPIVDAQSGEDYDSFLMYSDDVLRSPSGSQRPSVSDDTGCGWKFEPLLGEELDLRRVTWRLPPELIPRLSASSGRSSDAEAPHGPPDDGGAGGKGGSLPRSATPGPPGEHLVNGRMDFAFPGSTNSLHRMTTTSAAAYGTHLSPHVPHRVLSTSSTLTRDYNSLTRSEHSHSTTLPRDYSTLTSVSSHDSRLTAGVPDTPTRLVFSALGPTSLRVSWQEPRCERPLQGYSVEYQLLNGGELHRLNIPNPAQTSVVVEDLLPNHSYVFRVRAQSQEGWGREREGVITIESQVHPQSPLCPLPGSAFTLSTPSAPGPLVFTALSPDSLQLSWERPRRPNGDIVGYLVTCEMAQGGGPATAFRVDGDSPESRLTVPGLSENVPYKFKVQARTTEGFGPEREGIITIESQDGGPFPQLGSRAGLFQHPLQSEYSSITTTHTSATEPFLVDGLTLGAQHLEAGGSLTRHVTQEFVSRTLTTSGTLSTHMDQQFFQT
UniProt P08174, residues 35-353: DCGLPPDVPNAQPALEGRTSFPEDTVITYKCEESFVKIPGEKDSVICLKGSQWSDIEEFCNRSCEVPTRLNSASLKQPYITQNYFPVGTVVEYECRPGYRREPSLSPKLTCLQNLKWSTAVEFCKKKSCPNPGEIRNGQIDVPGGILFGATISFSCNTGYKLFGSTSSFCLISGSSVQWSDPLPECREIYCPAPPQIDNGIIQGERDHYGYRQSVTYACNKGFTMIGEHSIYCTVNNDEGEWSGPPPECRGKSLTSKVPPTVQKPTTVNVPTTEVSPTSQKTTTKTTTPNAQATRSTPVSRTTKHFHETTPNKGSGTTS

Results are given in words; binding and its absence hold for the method and conditions named. Some results given as binding are weak or reduced against the parent protein; the word gives no strength.

B1: Fab 65A12 (Fab, V domains shown)
VH: EVQLQQSGPELVKPGASVKISCKTSGYTFTEYTMHWVKQSHGKSLEWIGGINPNNGGTNYNQKFKGKATLTVDKSSSTAYMELRSLTSEDSAVYYCARWTGDFDVWGAGTTVTVSS
VL: DIVMTQSQKFMSTSVGDRVSVTCKASQNVGTNVAWYQQKPGQSPDALIYSASYRYSGVPDRFTGSGSGTDFTLTITNVQSEDLADYFCQQYNSYPLTFGSGTKLDLKR
Take B1: the binding result in assay [1] is reported as “binds”.

B2: Fab L52 (Fab, V domains shown)
VH: EVQLQQSGAELARPGASVKMSCKASGNTFNTIHWIKQRPGQGLEWIGYINPSNGLTKNNQKFKDKATLTADKSSSTAYMQLSSLTSEDSAVYSCALGYFYAMDYWGQGTSVTVSS
VL: DIVLTQSPASLSVSLGQRATISCKASQSVDNDGISYMNWYQQKPGQPPKLLIYAASNLGSGVPARFSGSGSGTDFSLNIHPVEEEDAATYFCQQYNGYPYTFGGGTKLEIKR
With B2, the binding result in assay [2] is “binds”.

Values taken from patent US20080008719A1 (Alexion, published 2008).
